Assay results reported in the supplement of paper PMC10849652.
The list shows a part of the results.

Chains of the proteins cited; added tags and fusions are not shown. Lines headed by an entry give the natural chain unless they say otherwise; changes in a name come on top.
UniProt P63098, whole entry, looked up: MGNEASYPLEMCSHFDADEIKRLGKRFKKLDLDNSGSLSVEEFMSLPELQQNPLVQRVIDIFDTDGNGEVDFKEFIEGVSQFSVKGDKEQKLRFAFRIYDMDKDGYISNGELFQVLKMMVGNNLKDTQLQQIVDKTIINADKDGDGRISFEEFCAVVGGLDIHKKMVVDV
UniProt Q8NAV1: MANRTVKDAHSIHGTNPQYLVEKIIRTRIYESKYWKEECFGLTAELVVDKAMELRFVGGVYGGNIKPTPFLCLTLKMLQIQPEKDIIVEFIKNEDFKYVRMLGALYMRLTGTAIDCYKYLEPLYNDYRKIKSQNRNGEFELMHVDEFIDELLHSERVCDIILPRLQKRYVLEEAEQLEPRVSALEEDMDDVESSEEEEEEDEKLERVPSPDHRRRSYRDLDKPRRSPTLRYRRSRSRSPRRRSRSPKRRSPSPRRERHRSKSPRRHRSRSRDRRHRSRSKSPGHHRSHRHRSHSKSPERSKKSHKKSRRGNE
UniProt Q9UMR5: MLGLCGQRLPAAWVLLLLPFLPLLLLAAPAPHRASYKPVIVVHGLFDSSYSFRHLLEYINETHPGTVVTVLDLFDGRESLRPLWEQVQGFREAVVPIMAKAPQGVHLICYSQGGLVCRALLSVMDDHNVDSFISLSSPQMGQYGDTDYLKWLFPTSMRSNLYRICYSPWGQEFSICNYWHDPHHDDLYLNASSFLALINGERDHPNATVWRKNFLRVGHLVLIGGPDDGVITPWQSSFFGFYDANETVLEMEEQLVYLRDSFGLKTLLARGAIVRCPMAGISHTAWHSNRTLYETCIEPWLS
UniProt O43395: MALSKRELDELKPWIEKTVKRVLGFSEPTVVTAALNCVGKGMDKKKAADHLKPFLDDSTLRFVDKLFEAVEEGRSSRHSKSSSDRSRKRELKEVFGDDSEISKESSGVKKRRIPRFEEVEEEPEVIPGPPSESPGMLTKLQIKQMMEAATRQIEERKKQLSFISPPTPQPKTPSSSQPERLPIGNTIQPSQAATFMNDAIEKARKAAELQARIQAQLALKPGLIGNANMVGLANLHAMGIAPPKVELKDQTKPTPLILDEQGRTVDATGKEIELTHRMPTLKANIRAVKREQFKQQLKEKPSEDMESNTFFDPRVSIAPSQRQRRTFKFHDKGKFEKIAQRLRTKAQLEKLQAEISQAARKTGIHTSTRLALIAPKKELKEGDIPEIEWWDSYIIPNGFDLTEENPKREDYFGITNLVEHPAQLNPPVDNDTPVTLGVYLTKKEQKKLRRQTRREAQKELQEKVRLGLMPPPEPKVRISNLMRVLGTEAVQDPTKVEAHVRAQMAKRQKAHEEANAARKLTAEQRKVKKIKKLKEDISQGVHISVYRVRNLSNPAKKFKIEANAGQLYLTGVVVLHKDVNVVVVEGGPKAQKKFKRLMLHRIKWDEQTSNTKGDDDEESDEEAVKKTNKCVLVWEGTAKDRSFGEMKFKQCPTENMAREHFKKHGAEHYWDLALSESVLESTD
UniProt Q02156: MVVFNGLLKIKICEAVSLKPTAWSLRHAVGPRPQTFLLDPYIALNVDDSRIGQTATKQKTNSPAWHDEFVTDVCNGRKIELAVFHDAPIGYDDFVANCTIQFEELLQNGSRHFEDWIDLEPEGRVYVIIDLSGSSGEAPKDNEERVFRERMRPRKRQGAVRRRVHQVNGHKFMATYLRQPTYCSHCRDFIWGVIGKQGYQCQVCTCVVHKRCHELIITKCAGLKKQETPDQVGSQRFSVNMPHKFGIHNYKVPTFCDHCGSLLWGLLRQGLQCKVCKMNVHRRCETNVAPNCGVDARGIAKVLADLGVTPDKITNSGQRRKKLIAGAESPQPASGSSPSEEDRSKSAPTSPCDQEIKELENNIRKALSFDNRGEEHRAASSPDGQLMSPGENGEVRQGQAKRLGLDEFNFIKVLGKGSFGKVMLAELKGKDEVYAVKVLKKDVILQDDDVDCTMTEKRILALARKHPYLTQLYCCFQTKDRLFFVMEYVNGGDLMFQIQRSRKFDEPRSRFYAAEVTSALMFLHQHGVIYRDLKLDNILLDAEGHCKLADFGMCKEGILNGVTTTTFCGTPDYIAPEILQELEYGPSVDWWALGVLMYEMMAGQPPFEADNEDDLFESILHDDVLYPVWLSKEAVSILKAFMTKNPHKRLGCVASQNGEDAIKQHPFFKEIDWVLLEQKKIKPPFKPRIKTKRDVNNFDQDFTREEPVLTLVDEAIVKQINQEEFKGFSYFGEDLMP
UniProt Q8WWY3: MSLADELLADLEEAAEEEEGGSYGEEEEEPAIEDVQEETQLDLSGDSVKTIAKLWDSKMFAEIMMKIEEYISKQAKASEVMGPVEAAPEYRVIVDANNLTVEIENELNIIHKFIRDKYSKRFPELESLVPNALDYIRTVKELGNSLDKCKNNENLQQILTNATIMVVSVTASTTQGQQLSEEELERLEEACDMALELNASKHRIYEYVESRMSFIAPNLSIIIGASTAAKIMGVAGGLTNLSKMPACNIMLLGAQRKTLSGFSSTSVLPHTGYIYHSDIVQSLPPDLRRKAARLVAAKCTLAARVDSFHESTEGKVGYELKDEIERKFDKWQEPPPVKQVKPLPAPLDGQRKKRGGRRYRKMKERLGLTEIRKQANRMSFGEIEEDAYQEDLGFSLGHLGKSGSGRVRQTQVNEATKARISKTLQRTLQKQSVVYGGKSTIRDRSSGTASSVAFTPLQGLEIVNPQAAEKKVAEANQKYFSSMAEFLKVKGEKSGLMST
UniProt P49642: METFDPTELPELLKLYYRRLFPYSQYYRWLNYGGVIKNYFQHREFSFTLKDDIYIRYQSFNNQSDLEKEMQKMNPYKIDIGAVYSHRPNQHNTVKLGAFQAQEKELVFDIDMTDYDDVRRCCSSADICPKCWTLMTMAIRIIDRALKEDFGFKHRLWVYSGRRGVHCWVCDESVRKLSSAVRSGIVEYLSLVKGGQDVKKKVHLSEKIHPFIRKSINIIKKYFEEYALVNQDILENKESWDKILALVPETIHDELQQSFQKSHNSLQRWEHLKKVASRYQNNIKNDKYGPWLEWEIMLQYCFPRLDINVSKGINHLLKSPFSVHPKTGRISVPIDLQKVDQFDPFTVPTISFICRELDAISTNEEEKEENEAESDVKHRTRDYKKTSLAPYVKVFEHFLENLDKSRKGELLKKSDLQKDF
UniProt P49643: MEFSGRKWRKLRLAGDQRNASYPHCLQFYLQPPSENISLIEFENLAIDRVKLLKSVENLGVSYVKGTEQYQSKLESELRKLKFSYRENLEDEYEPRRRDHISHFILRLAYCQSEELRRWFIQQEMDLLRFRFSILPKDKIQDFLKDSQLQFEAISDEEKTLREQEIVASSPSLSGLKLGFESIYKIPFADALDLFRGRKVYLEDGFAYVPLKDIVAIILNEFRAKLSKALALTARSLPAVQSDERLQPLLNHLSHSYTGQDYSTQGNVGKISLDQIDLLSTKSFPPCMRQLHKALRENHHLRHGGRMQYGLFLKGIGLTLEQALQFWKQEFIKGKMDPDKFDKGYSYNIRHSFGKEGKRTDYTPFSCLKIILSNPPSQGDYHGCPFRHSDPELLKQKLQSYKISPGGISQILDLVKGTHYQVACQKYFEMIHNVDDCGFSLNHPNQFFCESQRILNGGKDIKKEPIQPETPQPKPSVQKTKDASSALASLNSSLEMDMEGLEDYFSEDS
UniProt P50897: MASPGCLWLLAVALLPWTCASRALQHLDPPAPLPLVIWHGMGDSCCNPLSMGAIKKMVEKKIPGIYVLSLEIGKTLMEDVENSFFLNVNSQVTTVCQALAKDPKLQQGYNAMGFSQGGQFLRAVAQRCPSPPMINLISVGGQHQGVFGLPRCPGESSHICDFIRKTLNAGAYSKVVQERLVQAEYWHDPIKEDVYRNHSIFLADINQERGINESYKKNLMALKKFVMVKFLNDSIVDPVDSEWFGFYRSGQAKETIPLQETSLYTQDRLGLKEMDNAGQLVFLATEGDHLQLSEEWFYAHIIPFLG
UniProt Q5VTL8: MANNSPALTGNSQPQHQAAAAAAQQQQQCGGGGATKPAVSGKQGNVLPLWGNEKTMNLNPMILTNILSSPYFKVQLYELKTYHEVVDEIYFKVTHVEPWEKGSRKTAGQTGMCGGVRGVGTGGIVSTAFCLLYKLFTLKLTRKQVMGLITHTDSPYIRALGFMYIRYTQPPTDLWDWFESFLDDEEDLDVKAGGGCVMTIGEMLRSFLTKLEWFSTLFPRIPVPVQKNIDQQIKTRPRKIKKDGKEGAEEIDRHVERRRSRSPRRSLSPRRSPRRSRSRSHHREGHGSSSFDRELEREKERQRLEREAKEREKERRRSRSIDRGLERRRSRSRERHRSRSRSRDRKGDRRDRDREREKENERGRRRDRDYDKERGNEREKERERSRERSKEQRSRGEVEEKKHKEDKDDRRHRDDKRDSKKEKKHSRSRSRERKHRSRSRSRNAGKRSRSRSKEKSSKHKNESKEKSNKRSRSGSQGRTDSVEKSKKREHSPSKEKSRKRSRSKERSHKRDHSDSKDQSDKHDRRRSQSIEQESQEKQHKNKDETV
UniProt O75807, whole entry, looked up: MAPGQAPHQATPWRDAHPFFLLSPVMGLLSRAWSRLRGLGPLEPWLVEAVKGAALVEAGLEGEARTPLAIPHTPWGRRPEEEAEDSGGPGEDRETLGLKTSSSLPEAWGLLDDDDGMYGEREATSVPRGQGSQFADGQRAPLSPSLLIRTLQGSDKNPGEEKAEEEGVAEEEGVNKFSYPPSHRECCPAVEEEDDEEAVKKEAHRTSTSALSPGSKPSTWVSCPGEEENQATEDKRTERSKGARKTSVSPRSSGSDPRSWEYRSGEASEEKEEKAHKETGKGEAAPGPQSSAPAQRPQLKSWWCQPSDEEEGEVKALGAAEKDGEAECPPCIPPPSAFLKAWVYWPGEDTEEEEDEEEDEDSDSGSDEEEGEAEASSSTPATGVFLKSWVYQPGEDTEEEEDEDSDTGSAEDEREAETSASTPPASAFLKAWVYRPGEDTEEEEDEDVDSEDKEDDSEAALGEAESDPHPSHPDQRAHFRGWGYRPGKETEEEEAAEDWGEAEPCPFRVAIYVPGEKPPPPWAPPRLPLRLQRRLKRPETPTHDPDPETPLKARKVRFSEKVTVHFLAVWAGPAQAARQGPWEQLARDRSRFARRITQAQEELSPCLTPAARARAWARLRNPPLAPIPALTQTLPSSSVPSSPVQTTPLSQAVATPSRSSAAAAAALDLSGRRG
UniProt Q9Y478: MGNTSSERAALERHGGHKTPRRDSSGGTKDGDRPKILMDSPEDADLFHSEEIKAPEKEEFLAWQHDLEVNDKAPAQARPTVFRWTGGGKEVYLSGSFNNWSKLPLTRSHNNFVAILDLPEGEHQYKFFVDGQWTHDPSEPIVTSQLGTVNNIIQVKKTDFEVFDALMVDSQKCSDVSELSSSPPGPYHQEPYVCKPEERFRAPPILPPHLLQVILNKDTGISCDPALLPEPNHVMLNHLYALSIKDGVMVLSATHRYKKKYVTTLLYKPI
UniProt O94806: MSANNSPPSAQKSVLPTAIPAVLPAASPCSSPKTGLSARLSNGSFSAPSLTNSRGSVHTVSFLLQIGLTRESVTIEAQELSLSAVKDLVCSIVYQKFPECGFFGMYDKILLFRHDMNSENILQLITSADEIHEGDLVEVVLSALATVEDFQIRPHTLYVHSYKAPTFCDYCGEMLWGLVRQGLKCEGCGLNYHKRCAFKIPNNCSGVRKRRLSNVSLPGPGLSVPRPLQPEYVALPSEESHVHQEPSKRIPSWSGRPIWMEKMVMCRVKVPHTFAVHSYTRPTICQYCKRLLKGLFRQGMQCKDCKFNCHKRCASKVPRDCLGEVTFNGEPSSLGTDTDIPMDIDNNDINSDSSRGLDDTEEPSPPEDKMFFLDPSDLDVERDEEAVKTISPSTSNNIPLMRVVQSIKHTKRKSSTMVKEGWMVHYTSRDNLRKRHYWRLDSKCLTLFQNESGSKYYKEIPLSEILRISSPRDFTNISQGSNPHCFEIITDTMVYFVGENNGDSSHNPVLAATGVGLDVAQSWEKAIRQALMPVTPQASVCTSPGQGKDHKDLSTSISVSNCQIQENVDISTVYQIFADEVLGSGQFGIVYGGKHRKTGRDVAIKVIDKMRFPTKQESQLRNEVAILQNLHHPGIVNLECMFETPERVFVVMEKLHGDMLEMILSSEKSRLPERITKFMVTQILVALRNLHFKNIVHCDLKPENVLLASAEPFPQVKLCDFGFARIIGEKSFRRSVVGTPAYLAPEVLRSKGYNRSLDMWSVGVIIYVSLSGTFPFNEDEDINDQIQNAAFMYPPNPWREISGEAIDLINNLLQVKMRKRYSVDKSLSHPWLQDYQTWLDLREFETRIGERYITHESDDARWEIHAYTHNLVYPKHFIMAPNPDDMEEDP

Experiments:
Assay in all cases: log2 fold change, soluble protein after heating vs DMSO (PISA); higher = thermal stabilisation; K562 cells, 10 uM, 30 min; active = over 0.2 and 3.5 SD of the protein, either way, in both replicates (recomputed)
[1] = compound: CS(=O)(=O)c1ccc(-c2cnc(N)c(C(=O)Nc3ccccc3)n2)cc1
How it was run: (§1)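 Quantification of soluble protein used TMTpro 16plex LC-MS/MS, with channel sums equalised. Samples were the supernatant after 21,000xg for 90 min of pooled aliquots from K562 cells (2×10^6 cells/mL) treated with 10 μM compound for 30 min, heated for 3 min over 48°C-58°C, and extracted in PBS with 0.5% NP-40 at 4°C. Values, from duplicates, describe thermal stability against control samples on a log2 fold-change scale.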

crizotinib = compound: C[C@@H](Oc1cc(-c2cnn(C3CCNCC3)c2)cnc1N)c1c(Cl)ccc(F)c1Cl [crizotinib]
How it was run: as §1

[2] = compound: C[C@@H]1COCCN1C2=NC(=NC(=C2)C3(CC3)S(=O)(=O)C)C4=C5C=CNC5=CC=C4
How it was run: as §1

[3] = compound: C[C@H](C1=CC=C(C=C1)C(=O)NC2=C3C=CNC3=NC=C2)N
How it was run: as §1

duvelisib = compound: C[C@H](Nc1ncnc2nc[nH]c12)c1cc2cccc(Cl)c2c(=O)n1-c1ccccc1 [duvelisib]
How it was run: as §1

gandotinib = compound: Cc1cc(Nc2cc(CN3CCOCC3)c3nc(C)c(Cc4ccc(Cl)cc4F)n3n2)n[nH]1 [gandotinib]
How it was run: as §1

tozasertib = compound: Cc1cc(Nc2cc(N3CCN(C)CC3)nc(Sc3ccc(NC(=O)C4CC4)cc3)n2)n[nH]1 [tozasertib]
How it was run: as §1

[4] = compound: Cc1cc(SCc2sc(-c3ccc(C(F)(F)F)cc3)nc2C)ccc1OCC(=O)O
How it was run: as §1

doramapimod = compound: Cc1ccc(-n2nc(C(C)(C)C)cc2NC(=O)Nc2ccc(OCCN3CCOCC3)c3ccccc23)cc1 [doramapimod]
How it was run: as §1

ispinesib = compound: Cc1ccc(C(=O)N(CCCN)[C@@H](c2nc3cc(Cl)ccc3c(=O)n2Cc2ccccc2)C(C)C)cc1 [ispinesib]
How it was run: as §1

bafetinib = compound: Cc1ccc(NC(=O)c2ccc(CN3CC[C@H](N(C)C)C3)c(C(F)(F)F)c2)cc1Nc1nccc(-c2cncnc2)n1 [bafetinib]
How it was run: as §1

[5] = compound: Cc1cccc(CC(=O)N2CCc3c2ccc(-c2cn(C)c4ncnc(N)c24)c3F)n1
How it was run: as §1

nilotinib = compound: Cc1cn(-c2cc(NC(=O)c3ccc(C)c(Nc4nccc(-c5cccnc5)n4)c3)cc(C(F)(F)F)c2)cn1 [nilotinib]
How it was run: as §1

[6] = compound: Cc1nc(Nc2n[nH]c3c2CN(C(=O)N[C@H](CN(C)C)c2ccccc2)C3(C)C)c2sccc2n1
How it was run: as §1

dasatinib = compound: Cc1nc(Nc2ncc(C(=O)Nc3c(C)cccc3Cl)s2)cc(N2CCN(CCO)CC2)n1 [dasatinib]
How it was run: as §1

[7] = compound: Cc1ncc(-c2ccnc(Nc3ccc(S(C)(=O)=O)cc3)n2)n1C(C)C
How it was run: as §1

[8] = compound: Cn1cc(-c2ccc3c(c2)CCN3C(=O)Cc2cccc(C(F)(F)F)c2)c2c(N)ncnc21
How it was run: as §1

[9] = compound: Cn1cc(-c2ccc3nnc(C(F)(F)c4ccc5ncccc5c4)n3n2)cn1
How it was run: as §1

tipifarnib = compound: Cn1cncc1[C@@](N)(c1ccc(Cl)cc1)c1ccc2c(c1)c(-c1cccc(Cl)c1)cc(=O)n2C [tipifarnib]
How it was run: as §1

mubritinib = compound: FC(F)(F)c1ccc(/C=C/c2nc(COc3ccc(CCCCn4ccnn4)cc3)co2)cc1 [mubritinib]
How it was run: as §1

Measured: log2 fold change

PPP3R1 (UniProt P63098)
inactive: [1] -0.018 | crizotinib -0.024 | [2] 0.019 | [3] -0.053 | duvelisib 0.027 | gandotinib 0.02 | tozasertib 0.053 | [4] 0.003 | doramapimod -0.034 | ispinesib -0.009 | bafetinib -0.086 | [5] -0.014 | nilotinib -0.058 | [6] 0.07 | dasatinib 0.01 | [7] -0.032 | [8] 0.044 | [9] -0.007 | tipifarnib 0.049 | mubritinib -0.009

PRKD2 isoform 3 (UniProt Q9BZL6)
inactive: [1] -0.275 | crizotinib -0.39 | [2] 0.108 | [3] -0.111 | gandotinib 0.017 | [4] -0.014 | doramapimod 0.023 | ispinesib -0.129 | bafetinib -0.16 | [5] 0.045 | nilotinib -0.204 | dasatinib -0.139 | [7] -0.145 | [8] 0.057 | [9] 0.045 | tipifarnib -0.123 | mubritinib 0.099
active: [6] -0.698

PRPF38A (UniProt Q8NAV1)
inactive: [1] -0.029 | crizotinib 0.018 | [2] 0.017 | [3] 0.009 | gandotinib -0.042 | [4] 0.017 | doramapimod 0.006 | ispinesib -0.024 | bafetinib 0.048 | [5] 0.025 | nilotinib -0.006 | dasatinib -0.033 | [7] -0.073 | [8] -0.011 | [9] -0.08 | tipifarnib 0.036 | mubritinib 0.201
active: [6] -0.871

PRKACB isoform 2 (UniProt P22694)
active: [6] 0.647
inactive: [1] -0.009 | crizotinib -0.145 | [2] 0.033 | [3] -0.039 | gandotinib -0.091 | [4] 0.047 | doramapimod 0.028 | ispinesib -0.043 | bafetinib -0.06 | [5] 0.04 | nilotinib -0.021 | dasatinib -0.021 | [7] -0.037 | [8] -0.013 | [9] -0.004 | tipifarnib -0.144 | mubritinib 0.051

PPT2 isoform 3 (UniProt Q9UMR5)
inactive: [1] 0.074 | crizotinib -0.182 | [2] -0.021 | [3] -0.148 | gandotinib 0.001 | [4] -0.069 | doramapimod 0.006 | ispinesib -0.041 | [5] -0.013 | nilotinib 0.031 | [6] 0.013 | dasatinib 0.055 | [7] -0.045 | [8] 0.07 | [9] 0.037 | tipifarnib 0.013 | mubritinib 0.034
active: bafetinib -0.301

PRCP (UniProt P42785)
inactive: [1] 0.012 | crizotinib -0.078 | [2] -0.088 | [3] -0.037 | gandotinib 0.006 | [4] -0.037 | doramapimod -0.034 | ispinesib -0.096 | bafetinib -0.209 | [5] -0.018 | nilotinib 0.011 | [6] 0.009 | dasatinib -0.021 | [7] -0.009 | [8] 0.02 | [9] 0.008 | tipifarnib 0.055 | mubritinib 0.057

PRPF3 (UniProt O43395)
inactive: [1] 0.009 | crizotinib -0.025 | [2] 0.114 | [3] 0.193 | gandotinib -0.067 | [4] 0.174 | doramapimod -0.024 | ispinesib 0.025 | bafetinib 0.048 | [5] 0.072 | nilotinib -0.044 | [6] -0.201 | dasatinib -0.114 | [7] -0.152 | [8] -0.149 | [9] 0.018 | tipifarnib -0.011 | mubritinib 0.118

PRKCE (UniProt Q02156)
active: [6] -0.335
inactive: [1] 0.051 | crizotinib -0.071 | [2] 0.083 | [3] -0.168 | gandotinib -0.092 | [4] 0.055 | doramapimod -0.003 | bafetinib 0.001 | [5] 0.02 | nilotinib -0.024 | dasatinib -0.118 | [7] 0.004 | [8] 0.051 | tipifarnib -0.049 | mubritinib 0.052

PRPF31 (UniProt Q8WWY3)
inactive: [1] 0.041 | crizotinib 0.013 | [2] 0.181 | [3] 0.137 | gandotinib -0.044 | [4] 0.159 | doramapimod 0.069 | ispinesib -0.029 | bafetinib -0.012 | [5] 0.01 | nilotinib -0.037 | dasatinib -0.274 | [7] -0.387 | [8] 0.055 | [9] 0.053 | tipifarnib -0.031 | mubritinib -0.014
active: [6] -0.572

2 successive entries out of the list so far, for reference:
PPT2 isoform 3 (UniProt Q9UMR5)
inactive: [1] 0.074 | crizotinib -0.182 | [2] -0.021 | [3] -0.148 | gandotinib 0.001 | [4] -0.069 | doramapimod 0.006 | ispinesib -0.041 | [5] -0.013 | nilotinib 0.031 | [6] 0.013 | dasatinib 0.055 | [7] -0.045 | [8] 0.07 | [9] 0.037 | tipifarnib 0.013 | mubritinib 0.034
active: bafetinib -0.301

PRCP (UniProt P42785)
inactive: [1] 0.012 | crizotinib -0.078 | [2] -0.088 | [3] -0.037 | gandotinib 0.006 | [4] -0.037 | doramapimod -0.034 | ispinesib -0.096 | bafetinib -0.209 | [5] -0.018 | nilotinib 0.011 | [6] 0.009 | dasatinib -0.021 | [7] -0.009 | [8] 0.02 | [9] 0.008 | tipifarnib 0.055 | mubritinib 0.057

The listing continues:

PRIM1 (UniProt P49642)
inactive: [1] 0.051 | crizotinib -0.066 | [2] 0.039 | [3] 0.086 | gandotinib -0.131 | [4] 0.102 | doramapimod 0.007 | ispinesib -0.082 | bafetinib 0.046 | [5] 0.01 | nilotinib -0.034 | [6] -0.055 | dasatinib -0.161 | [7] -0.009 | [8] -0.033 | [9] 0.009 | tipifarnib -0.073 | mubritinib 0.06

PRIM2 (UniProt P49643)
inactive: [1] 0.078 | crizotinib -0.063 | [2] 0.154 | [3] 0.066 | gandotinib 0.07 | [4] 0.145 | doramapimod -0.06 | ispinesib -0.061 | bafetinib 0.007 | [5] -0.019 | nilotinib -0.063 | [6] -0.06 | dasatinib -0.128 | [7] 0.021 | [8] 0.015 | [9] 0.046 | tipifarnib -0.018 | mubritinib 0.101

PPT1 (UniProt P50897)
active: crizotinib -0.57 | ispinesib -0.394 | bafetinib -0.742
inactive: [1] 0.022 | [2] -0.008 | [3] -0.029 | gandotinib -0.018 | [4] 0.023 | doramapimod -0.004 | [5] 0.011 | nilotinib 0.021 | [6] 0.02 | dasatinib 0 | [7] -0.001 | [8] 0.006 | [9] 0.019 | tipifarnib 0.025 | mubritinib 0.027

PRPF38B (UniProt Q5VTL8)
inactive: [1] -0.051 | crizotinib -0.026 | [2] 0.058 | gandotinib 0.001 | [4] -0.002 | doramapimod 0.005 | ispinesib 0.193 | bafetinib -0.016 | [5] -0.015 | nilotinib 0.049 | dasatinib -0.022 | [7] -0.008 | [8] 0.012 | [9] -0.04 | tipifarnib -0.067 | mubritinib 0.004
active: [3] -0.269 | [6] -1.9

PPP1R15A (UniProt O75807)
inactive: [1] 0.068 | crizotinib -0.426 | [2] 0.069 | doramapimod -0.493 | tipifarnib -0.047

PRKAB1 (UniProt Q9Y478)
active: crizotinib -0.252
inactive: [1] 0.013 | [2] 0.029 | [3] -0.063 | gandotinib -0.057 | [4] 0.069 | doramapimod 0.013 | ispinesib -0.013 | bafetinib -0.154 | [5] 0.006 | nilotinib -0.119 | [6] -0.162 | dasatinib -0.037 | [7] -0.007 | [8] 0.04 | [9] -0.026 | tipifarnib 0.008 | mubritinib -0.104

PPP3CA (UniProt Q08209)
inactive: [1] -0.034 | crizotinib 0.074 | [3] -0.05 | duvelisib 0.016 | gandotinib -0.126 | tozasertib 0.101 | [4] 0.112 | doramapimod -0.058 | ispinesib 0.061 | bafetinib -0.085 | [5] -0.034 | nilotinib -0.149 | [6] 0.052 | dasatinib 0.036 | [7] 0.046 | [8] 0.076 | [9] 0 | tipifarnib -0.019 | mubritinib 0.044

PPP1R21 (UniProt Q6ZMI0)
inactive: [1] -0.051 | [2] 0.148 | [3] 0.062 | duvelisib 0.004 | gandotinib -0.052 | [4] -0.007 | bafetinib -0.177 | [5] 0.08 | nilotinib -0.183 | [6] 0.022 | dasatinib -0.282 | [7] -0.013 | [8] -0.05 | tipifarnib -0.124

PRKD3 (UniProt O94806)
inactive: [1] -0.132 | crizotinib -0.292 | [3] -0.189 | gandotinib 0.092 | [4] 0.039 | doramapimod -0.088 | ispinesib -0.237 | bafetinib -0.011 | [5] -0.231 | dasatinib -0.258 | [8] -0.079 | [9] 0.006 | mubritinib -0.062
